Results reported in publication PMC10853541.
These are yes or no findings as the source states them, for the method shown. In cells and extracts the contact can be indirect. Some binding calls cover weakened binding; strength is not graded here.

By UniProt entry, the sequences of proteins in these tests, tags left out. Where a name states a change or a piece, a line headed by the entry shows the natural chain unless it says otherwise.
UniProt P70658: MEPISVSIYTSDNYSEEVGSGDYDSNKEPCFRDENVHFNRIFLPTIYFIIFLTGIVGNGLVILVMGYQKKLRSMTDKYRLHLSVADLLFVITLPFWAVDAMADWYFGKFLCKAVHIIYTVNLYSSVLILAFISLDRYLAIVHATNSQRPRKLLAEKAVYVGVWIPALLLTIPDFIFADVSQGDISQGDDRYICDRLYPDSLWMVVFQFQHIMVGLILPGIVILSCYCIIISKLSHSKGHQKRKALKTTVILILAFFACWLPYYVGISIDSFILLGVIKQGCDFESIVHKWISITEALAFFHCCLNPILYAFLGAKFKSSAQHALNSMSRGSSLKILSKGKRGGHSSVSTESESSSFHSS
UniProt P63158: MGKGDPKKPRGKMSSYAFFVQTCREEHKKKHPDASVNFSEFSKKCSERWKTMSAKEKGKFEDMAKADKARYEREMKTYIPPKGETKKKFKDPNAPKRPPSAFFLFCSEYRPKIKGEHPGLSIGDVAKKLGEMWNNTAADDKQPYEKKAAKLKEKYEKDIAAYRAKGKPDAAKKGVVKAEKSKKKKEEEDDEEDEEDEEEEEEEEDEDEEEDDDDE

Target: CXCR4 on the surface of mouse AB1 malignant mesothelioma cells (mouse (endogenous in AB1)) (UniProt P70658)
Experiment: proximity ligation; endogenous HMGB1 and CXCL12 on the surface of fixed AB1 cells (anti-HMGB1 + anti-CXCL12); cells untreated, treated 1 h at 37 °C with AMD3100 or Ac-pep (10, 30, 100 nM), or Cxcr4 knockout

Substance: endogenous HMGB1•CXCL12 heterocomplex on the surface of AB1 cells (from UniProt P63158 1-215; P40224 22-93)
- binding: binds
